Source: publication doi:10.1101/2022.11.10.515925 (bioRxiv, 2022)
Results are given in words; binding and its absence hold for the method and conditions named. One block for each binder: values may come before it.

Columns and labels:
Test in all cases: SEC-MALS
[1] = molecular target: KIF20A 55-565 (monomeric construct) (mouse) (UniProt P97329)
[2] = molecular target: KIF20A 1-520 (monomeric construct) (mouse) (UniProt P97329)
[3] = molecular target: KIF20A 55-510 (minimal motor domain construct used in crystallography) (mouse) (UniProt P97329)
[4] = molecular target: KIF20A 25-520 (monomeric construct) (mouse) (UniProt P97329)
[5] = molecular target: KIF20A 1-565 (full-length motor domain, monomeric construct) (mouse) (UniProt P97329)

binding [1]: no binding (tested: 5 mg/mL)
B1: KIF20A 55-565 (monomeric construct) (domain or fragment, UniProt P97329 55-565)
chain: ALLEDTSEKVKVYLRIRPFLTSELDRQEDQGCVCIENTETLVLQAPKDSFALKSNERGVGQATHKFTFSQIFGPEVGQVAFFNLTMKEMVKDVLKGQNWLIYTYGVTNSGKTYTIQGTSKDAGILPQSLALIFNSLQGQLHPTPDLKPLLSNEVIWLDSKQIRQEEMKKLSLLIGGLQEEELSTSVKKRVHTESRIGASNSFDSGVAGLSSTSQFTSSSQLDETSQLWAQPDTVPVSVPADIRFSVWISFFEIYNELLYDLLEPPSHQHKRQTLRLCEDQNGNPYVKDLNWIHVRDVEEAWKLLKVGRKNQSFASTHMNQQSSRSHSIFSIRILHLQGEGDIVPKISELSLCDLAGSERCKHQKSGERLKEAGNINTSLHTLGRCIAALRQNQQNRSKQNLIPFRDSKLTRVFQGFFTGRGRSCMIVNVNPCASTYDETLHAAKFSALASQLVHAPPVHLGIPSLHSFIKKHSPQVGPGLEKEDKADSDLEDSPEDEADVSVYGKEELLQV

binding [2]: no binding (tested: 5 mg/mL)
B2: KIF20A 1-520 (monomeric construct) (domain or fragment, UniProt P97329 1-520)
chain: MSHRILSPPAGLLSDEDVVDSPILESTAADLRSVVRKDLLSDCSVISASLEDKQALLEDTSEKVKVYLRIRPFLTSELDRQEDQGCVCIENTETLVLQAPKDSFALKSNERGVGQATHKFTFSQIFGPEVGQVAFFNLTMKEMVKDVLKGQNWLIYTYGVTNSGKTYTIQGTSKDAGILPQSLALIFNSLQGQLHPTPDLKPLLSNEVIWLDSKQIRQEEMKKLSLLIGGLQEEELSTSVKKRVHTESRIGASNSFDSGVAGLSSTSQFTSSSQLDETSQLWAQPDTVPVSVPADIRFSVWISFFEIYNELLYDLLEPPSHQHKRQTLRLCEDQNGNPYVKDLNWIHVRDVEEAWKLLKVGRKNQSFASTHMNQQSSRSHSIFSIRILHLQGEGDIVPKISELSLCDLAGSERCKHQKSGERLKEAGNINTSLHTLGRCIAALRQNQQNRSKQNLIPFRDSKLTRVFQGFFTGRGRSCMIVNVNPCASTYDETLHAAKFSALASQLVHAPPVHLGIPSLH

binding [3]: no binding (tested: 5 mg/mL)
B3: KIF20A 55-510 (minimal motor domain construct used in crystallography) (domain or fragment, UniProt P97329 55-510)
chain: ALLEDTSEKVKVYLRIRPFLTSELDRQEDQGCVCIENTETLVLQAPKDSFALKSNERGVGQATHKFTFSQIFGPEVGQVAFFNLTMKEMVKDVLKGQNWLIYTYGVTNSGKTYTIQGTSKDAGILPQSLALIFNSLQGQLHPTPDLKPLLSNEVIWLDSKQIRQEEMKKLSLLIGGLQEEELSTSVKKRVHTESRIGASNSFDSGVAGLSSTSQFTSSSQLDETSQLWAQPDTVPVSVPADIRFSVWISFFEIYNELLYDLLEPPSHQHKRQTLRLCEDQNGNPYVKDLNWIHVRDVEEAWKLLKVGRKNQSFASTHMNQQSSRSHSIFSIRILHLQGEGDIVPKISELSLCDLAGSERCKHQKSGERLKEAGNINTSLHTLGRCIAALRQNQQNRSKQNLIPFRDSKLTRVFQGFFTGRGRSCMIVNVNPCASTYDETLHAAKFSALASQLVHAP

binding [4]: no binding (tested: 5 mg/mL)
B4: KIF20A 25-520 (monomeric construct) (domain or fragment, UniProt P97329 25-520)
chain: ESTAADLRSVVRKDLLSDCSVISASLEDKQALLEDTSEKVKVYLRIRPFLTSELDRQEDQGCVCIENTETLVLQAPKDSFALKSNERGVGQATHKFTFSQIFGPEVGQVAFFNLTMKEMVKDVLKGQNWLIYTYGVTNSGKTYTIQGTSKDAGILPQSLALIFNSLQGQLHPTPDLKPLLSNEVIWLDSKQIRQEEMKKLSLLIGGLQEEELSTSVKKRVHTESRIGASNSFDSGVAGLSSTSQFTSSSQLDETSQLWAQPDTVPVSVPADIRFSVWISFFEIYNELLYDLLEPPSHQHKRQTLRLCEDQNGNPYVKDLNWIHVRDVEEAWKLLKVGRKNQSFASTHMNQQSSRSHSIFSIRILHLQGEGDIVPKISELSLCDLAGSERCKHQKSGERLKEAGNINTSLHTLGRCIAALRQNQQNRSKQNLIPFRDSKLTRVFQGFFTGRGRSCMIVNVNPCASTYDETLHAAKFSALASQLVHAPPVHLGIPSLH

binding [5]: no binding (tested: 5 mg/mL)
B5: KIF20A 1-565 (full-length motor domain, monomeric construct) (domain or fragment, UniProt P97329 1-565)
chain: MSHRILSPPAGLLSDEDVVDSPILESTAADLRSVVRKDLLSDCSVISASLEDKQALLEDTSEKVKVYLRIRPFLTSELDRQEDQGCVCIENTETLVLQAPKDSFALKSNERGVGQATHKFTFSQIFGPEVGQVAFFNLTMKEMVKDVLKGQNWLIYTYGVTNSGKTYTIQGTSKDAGILPQSLALIFNSLQGQLHPTPDLKPLLSNEVIWLDSKQIRQEEMKKLSLLIGGLQEEELSTSVKKRVHTESRIGASNSFDSGVAGLSSTSQFTSSSQLDETSQLWAQPDTVPVSVPADIRFSVWISFFEIYNELLYDLLEPPSHQHKRQTLRLCEDQNGNPYVKDLNWIHVRDVEEAWKLLKVGRKNQSFASTHMNQQSSRSHSIFSIRILHLQGEGDIVPKISELSLCDLAGSERCKHQKSGERLKEAGNINTSLHTLGRCIAALRQNQQNRSKQNLIPFRDSKLTRVFQGFFTGRGRSCMIVNVNPCASTYDETLHAAKFSALASQLVHAPPVHLGIPSLHSFIKKHSPQVGPGLEKEDKADSDLEDSPEDEADVSVYGKEELLQV
